# Reference: PubChem BioAssay AID1439 (NMMLSC, 2008)
# Sequences of proteins named here, by UniProt entry; tags and fusion partners are left off.
# UniProt P09471, whole entry, looked up: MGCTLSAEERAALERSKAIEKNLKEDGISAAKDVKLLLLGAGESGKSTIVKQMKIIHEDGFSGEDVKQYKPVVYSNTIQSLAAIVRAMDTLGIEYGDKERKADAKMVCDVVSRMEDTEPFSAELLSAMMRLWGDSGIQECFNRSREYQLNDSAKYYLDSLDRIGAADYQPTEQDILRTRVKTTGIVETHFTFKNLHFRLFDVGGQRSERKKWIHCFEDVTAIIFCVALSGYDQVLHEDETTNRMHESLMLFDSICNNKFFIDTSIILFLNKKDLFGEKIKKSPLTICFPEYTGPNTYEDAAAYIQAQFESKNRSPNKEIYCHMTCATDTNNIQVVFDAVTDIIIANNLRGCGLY
# Hit rate of the full screen: of about 220,000 compounds, about 770 (0.35%) were called active. The shares of active, inactive and inconclusive entries below differ from those in the screen. No stated cut-off is given here; in the data, active means binding response below about 49% or above about 150%; inconclusive means no clear call, values can overlap the other calls; inactive means in between.
# Target: Guanine nucleotide-binding protein G(o) subunit alpha (Homo sapiens) (UniProt P09471)
# Test: RGS7-Galphao binding modulators, primary screen, biochemical, multiplexed bead flow cytometry (AID 1439);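 further: fluorescent Galphao held in activated GDP-AlF4 state binding bead-coupled RGS7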
# Conditions: at 10 µM, actives lie on both sides
row,SMILES,binding response (% of control)
1,N#CC12COC3(CCCCC3C1(C#N)C#N)OC2=N (stereo not drawn),inconclusive: 125%
2,N#C/C(=C\c1ccc(O)c(O)c1)S(=O)(=O)c1ccccc1,active: 203% [activator]
3,OCCN(CC#CCC(O)(c1ccccc1)C1CCCC1)CCO (stereo not drawn),inconclusive: 109%
4,Cc1cc(C(=O)Nc2ccc(OCc3ccccc3)cc2)c(C)o1,inconclusive: 62.6%
5,COC(=O)c1c(C)noc1-c1ccc(Cl)cc1,inconclusive: 108%
6,COc1cc(/C=C/C(=O)OCC(=O)Nc2ccccc2Cl)cc(OC)c1OC,inconclusive: 81.6%
7,Nc1nnn(CC(=O)N/N=C/c2cccc(Cl)c2)n1,inconclusive: 86.1%
8,CC(=O)c1c(C)[nH]c(C(=O)OCc2ccc(F)cc2Cl)c1C,inconclusive: 115%
9,N#C/C(=N\Nc1ccc(Cl)cc1)C(N)=S,inconclusive: 92.1%
10,COc1ccc(/C=C/C(=O)NCc2ccc(F)cc2)cc1S(=O)(=O)N1CCOCC1,inconclusive: 110%
11,CN(C)CCCNc1nc2sc3c(c2c(=O)n1CCc1ccccc1)CCCCC3,inconclusive: -37.9%
12,Cc1nc2c(C)cccc2c(SC(=N)N)c1CC=C(Cl)Cl,inconclusive: 174%
13,CN(C)CCCNC(=O)c1cc(C(=O)C2CCCCC2)c[nH]1,inconclusive: 99.6%
14,O=C(NN1CCN(Cc2ccccc2)CC1)c1ccc(N2CCOCC2)c([N+](=O)[O-])c1,inactive: 100%
15,Cc1ccc(C(=O)NS(=O)(=O)c2ccc(C)cc2)cc1,inconclusive: 88.8%
16,O=C(CO/N=C/c1c(Cl)cccc1Cl)NNC(=O)c1ccc(Cl)cc1,inconclusive: 107%
17,CCC(=O)c1ccc(OCC(=O)Nc2ccc3nc(C)sc3c2)cc1,inconclusive: 107%
18,COC(CNC(=O)Cc1c(C)nc2c(-c3ccccc3)c(C)nn2c1C)OC,inconclusive: 103%
19,CCN(CC(=O)Nc1cccc(OC)c1)c1ncnc2sc(C)c(C)c12,inactive: 99.1%
20,Cc1c(NC(=O)CSc2ncccn2)c(=O)n(-c2ccccc2)n1C,inconclusive: 101%
21,CC1(C)Cc2nc3sc(C(=O)NCCCO)c(N)c3cc2CO1,inconclusive: 36.3%
22,O=C(O)c1ccccc1OCc1ccccc1Cl,inconclusive: 107%
23,CN(C)CCOCCOc1ccc(Cl)cc1Br,inconclusive: 103%
24,NS(=O)(=O)c1cccc(NC(=O)Nc2ccccc2)c1,inconclusive: -58.4%

row,SMILES,binding response (% of control)
1,CC(C)(C)C(=O)Nc1ccc(F)cc1[N+](=O)[O-],inconclusive: 116%
2,Cc1nc2c(=O)[nH]c(=S)n(C)c2nc1C,inactive: 126%
3,CCN(C(=O)c1cnc(NC(C)C)cc1C(F)(F)F)c1ccc(Cl)cc1Cl,inconclusive: 107%
4,COc1ccc(Br)cc1S(=O)(=O)n1ccnc1C,inactive: 103%
5,CCN(CC)C(=O)COc1ccc(/C=C(\C#N)S(=O)(=O)c2ccccc2)cc1OC,inactive: 95.6%
6,CC(C)(C)OC(=O)NCCCCCc1nnc(SCc2cccc(F)c2)o1,inconclusive: 106%
7,CCN(c1ccccc1)S(=O)(=O)c1ccc(Cl)c(NC(=O)CSc2nnc(C)s2)c1,inconclusive: 121%
8,CCOc1ccc(-n2c(SCc3ccc([N+](=O)[O-])cc3)nnc2-c2ccc(OC)cc2)cc1,inactive: 101%
9,CS(=O)c1ccccc1-c1nc(-c2cccc(Cl)c2)no1 (stereo not drawn),inactive: 100%
10,Cn1ncc([N+](=O)[O-])c1C(=O)Nc1ccc(C2CCCCC2)cc1,inconclusive: 81.7%
11,CC(C)Oc1cccc(C(=O)NC(=S)Nc2ccc(N3CCN(C)CC3)cc2)c1,inconclusive: 134%
12,NS(=O)(=O)c1cccc(NS(=O)(=O)c2ccc(/C=C/C(=O)O)cc2)c1,inconclusive: 35.1%
13,CC(C)(C)Nc1nc2cc([N+](=O)[O-])ccc2o1,inconclusive: 68.3%
14,CCC(C)NCCC(=O)Nc1ccc(Cl)c(S(=O)(=O)Nc2ccc(Cl)cc2)c1 (stereo not drawn),inactive: 105%
15,CSc1sc(C(=O)OC(C)C)c2c1C(=O)CC(C)(C)C2,inconclusive: 101%
16,CCOc1ccc(-c2nnc(Nc3ccc(OC)c(C(=O)N4CCCCC4)c3)c3ccccc23)cc1,inactive: 97.4%
17,COc1ccccc1NC(=O)NCCN1CCNC1=O,inconclusive: 127%
18,O=C(Cc1ccc(Br)cc1)OCC(=O)c1ccc2c(c1)OCCO2,active: 41.6%
19,COC(=O)c1ccccc1OCC(=O)N1CCN(c2ccc(Cl)cc2)CC1,active: 290% [activator]
20,Cc1ccc(Nc2ccccc2)nn1,inconclusive: -55.6%
21,O=C1CS/C(=N/N=C/c2ccccc2)N1Cc1ccco1,inconclusive: 82.7%
22,Cc1oc(C(N)=O)nc1-c1ccccc1,inconclusive: 24.2%
23,CN1Cc2sc(NC(=S)NC(=O)c3ccccc3)c(C#N)c2CC1(C)C,inconclusive: 103%
24,CC(C)[C@H](NC(=O)c1ccccc1Cl)C(=O)Nc1nc(-c2ccccn2)cs1,inconclusive: 109%

row,SMILES,binding response (% of control)
1,CCOC(=O)C(CC(=O)O)NCc1ccco1 (stereo not drawn),inconclusive: 102%
2,Cc1nc([N+](=O)[O-])cn1C(C)C,inconclusive: 40.2%
3,NC(=O)c1ccc(NC(=O)CSc2nnc(-c3ccncc3)n2Cc2ccco2)cc1,inconclusive: 75%
4,O=C(Nc1ccno1)Nc1ccc(Cl)cc1Cl,inconclusive: 61.5%
5,O=C(Nc1cc(S(=O)(=O)N2CCOCC2)ccc1N1CCOCC1)c1ccc(Cl)nc1,inconclusive: 117%
6,C/C(=N\O)C(=O)Nc1ccccc1,inconclusive: 54.3%
7,CCN(CC)C(CNS(=O)(=O)c1ccc(Cl)cc1)c1ccccc1 (stereo not drawn),inconclusive: 105%
8,Cc1ccc(-c2[nH]c3ccccc3c2SCCN)cc1,inconclusive: 123%
9,CC1CCC(C(C)C)C(OC(=O)C[n+]2cc(-c3ccc(Cl)cc3)n3c2CCCCC3)C1 (stereo not drawn),inactive: 102%
10,O=C(NCCC1=CCCCC1)c1cc2ccccc2oc1=O,inconclusive: 62.4%
11,Cc1ccc(-c2nnn(CC(=O)N(CCN3CCOCC3)C(C(=O)NC(C)(C)C)c3ccc(C)o3)n2)cc1 (stereo not drawn),inconclusive: 28.2%
12,Cc1cc(C(=O)NNc2ccc(Cl)cc2)no1,inconclusive: 167%
13,O=C1C(=O)N(Cc2ccccc2)C(=O)N1CCOc1ccccc1,inactive: 52.3%
14,CN(Cc1ccccc1)C(=O)COC(=O)C1CCN(S(=O)(=O)c2cccs2)CC1,inconclusive: 94.7%
15,CCCCNC(=O)COC(=O)c1ccc(F)cc1Cl,inconclusive: 90.4%
16,CC(=O)c1cc2c(s1)-c1cc(F)ccc1OC2,inconclusive: 65.4%
17,CC(=O)Nc1cnc2ccccc2n1,active: 181% [activator]
18,FC(F)(F)c1cccc(NC(=S)NNC(=S)Nc2cccc(C(F)(F)F)c2)c1,inconclusive: 115%
19,O=C(c1ccc2c3n(nc2c1)-c1ccc(Cl)cc1CO3)N1CCOCC1,inconclusive: 99.8%
20,CC(C)CC(=O)OCC(=O)Nc1ccccc1Sc1ccccc1,inactive: 102%
21,COc1cc(Cl)c(C)cc1NC(=O)COc1ccccc1[N+](=O)[O-],inactive: 103%
22,CCOC(=O)C1=C(CBr)NC(=O)NC1C (stereo not drawn),inconclusive: 84.5%
23,COc1ccc2c(c1)c1ncn(Cc3ccccn3)c(=O)c1n2C,inconclusive: 541%
24,OC(CC#CCN1CCCC1)(c1ccccc1)c1ccccc1,inconclusive: 86.3%

# A section from the list above:
row,SMILES,binding response (% of control)
3,OCCN(CC#CCC(O)(c1ccccc1)C1CCCC1)CCO (stereo not drawn),inconclusive: 109%
4,Cc1cc(C(=O)Nc2ccc(OCc3ccccc3)cc2)c(C)o1,inconclusive: 62.6%
5,COC(=O)c1c(C)noc1-c1ccc(Cl)cc1,inconclusive: 108%
6,COc1cc(/C=C/C(=O)OCC(=O)Nc2ccccc2Cl)cc(OC)c1OC,inconclusive: 81.6%
7,Nc1nnn(CC(=O)N/N=C/c2cccc(Cl)c2)n1,inconclusive: 86.1%
8,CC(=O)c1c(C)[nH]c(C(=O)OCc2ccc(F)cc2Cl)c1C,inconclusive: 115%
9,N#C/C(=N\Nc1ccc(Cl)cc1)C(N)=S,inconclusive: 92.1%
10,COc1ccc(/C=C/C(=O)NCc2ccc(F)cc2)cc1S(=O)(=O)N1CCOCC1,inconclusive: 110%
11,CN(C)CCCNc1nc2sc3c(c2c(=O)n1CCc1ccccc1)CCCCC3,inconclusive: -37.9%
12,Cc1nc2c(C)cccc2c(SC(=N)N)c1CC=C(Cl)Cl,inconclusive: 174%
13,CN(C)CCCNC(=O)c1cc(C(=O)C2CCCCC2)c[nH]1,inconclusive: 99.6%
14,O=C(NN1CCN(Cc2ccccc2)CC1)c1ccc(N2CCOCC2)c([N+](=O)[O-])c1,inactive: 100%
15,Cc1ccc(C(=O)NS(=O)(=O)c2ccc(C)cc2)cc1,inconclusive: 88.8%
16,O=C(CO/N=C/c1c(Cl)cccc1Cl)NNC(=O)c1ccc(Cl)cc1,inconclusive: 107%
17,CCC(=O)c1ccc(OCC(=O)Nc2ccc3nc(C)sc3c2)cc1,inconclusive: 107%
18,COC(CNC(=O)Cc1c(C)nc2c(-c3ccccc3)c(C)nn2c1C)OC,inconclusive: 103%
19,CCN(CC(=O)Nc1cccc(OC)c1)c1ncnc2sc(C)c(C)c12,inactive: 99.1%
20,Cc1c(NC(=O)CSc2ncccn2)c(=O)n(-c2ccccc2)n1C,inconclusive: 101%
21,CC1(C)Cc2nc3sc(C(=O)NCCCO)c(N)c3cc2CO1,inconclusive: 36.3%
22,O=C(O)c1ccccc1OCc1ccccc1Cl,inconclusive: 107%
23,CN(C)CCOCCOc1ccc(Cl)cc1Br,inconclusive: 103%
24,NS(=O)(=O)c1cccc(NC(=O)Nc2ccccc2)c1,inconclusive: -58.4%

# Later entries.

row,SMILES,binding response (% of control)
1,COc1ccc(Br)cc1/C=N/N1CCN(Cc2ccccc2)CC1,inconclusive: 106%
2,CCOc1ccc2c(c1)C(=O)c1cc(OCC(=O)O)ccc1-2,inconclusive: 107%
3,C=CCOc1ccc2c(c1)c(=O)cc(C(=O)O)n2CC,inconclusive: 99.4%
4,CC(=O)c1ccc(N2CCN(C(=O)c3ccc(Cn4c(=S)[nH]c5ccc(N6CCOCC6)cc5c4=O)cc3)CC2)cc1,inactive: 104%
5,CCn1nc(C)cc1C(=O)Sc1cccc(Cl)c1,inconclusive: 90.6%
6,Cc1cc(/C([O-])=C(/C(=S)Nc2ccc(F)cc2)[n+]2ccccc2)c(C)n1Cc1ccccc1Cl,inconclusive: 107%
7,Cn1nc2c3ccccc3n(Cc3ccccc3)c2nc1=S,inconclusive: 109%
8,O=C(CC1Sc2ccccc2NC1=O)Nc1ccccc1[N+](=O)[O-] (stereo not drawn),inactive: 91.6%
9,CCN(CC)CCOC(=O)c1ccc(NC(=O)c2ccc(Cl)c(S(=O)(=O)N3CCCCCC3)c2)cc1,inactive: 105%
10,Cc1ccc(Cl)cc1NC(=S)N(C)N,inconclusive: 100%
11,CCOC(=O)C1CCN(c2c(C(=O)c3ccccc3)cnc3ccc(CC)cc23)CC1,inconclusive: 107%
12,CCOC(=O)C1=C(O)CSC1=Nc1ccc(C)cc1,inactive: 101%
13,COc1ccc(Cc2[nH]n3c(=O)c(Cl)c(C)nc3c2-c2ccccc2)cc1,inactive: 98.9%
14,CC(C)(C)OC(=O)NCCC(=O)N/N=C/c1ccc2ncccc2c1,inconclusive: 60%
15,CCc1ccccc1S(=O)(=O)Cc1ccc(C(=O)NCc2cccs2)o1,inactive: 106%
16,NC(=O)CC(NC(=O)c1ccc(Br)cc1)c1ccc(NCc2ccc(F)c(F)c2)c([N+](=O)[O-])c1 (stereo not drawn),inconclusive: 120%
17,Cc1ccc2c(c1)C1CN(C)CCC1N2C(=O)c1cccc(S(=O)(=O)N(C)C)c1 (stereo not drawn),inconclusive: 91.6%
18,Cc1nc(-c2cc(C#N)c(Sc3cccc(C(F)(F)F)c3)nc2C)cs1,inconclusive: 108%
19,CCCCC(=O)N=c1sc2c(OC)ccc(OC)c2n1C,inconclusive: -682%
20,CC(C)NC(=O)Nc1cccc(Cl)c1,inconclusive: 141%
21,CN1C(=O)C2C(c3ccc(N(C)C)cc3)NN(Cc3ccccc3)C2C1=O (stereo not drawn),inactive: 101%
